Measured values reported in article PMC517823.
These are yes or no findings as the source states them, for the method shown. Some results given as binding are weak or reduced against the parent protein; the word gives no strength.

T1: Ffh (UniProt P0AGD7)
T1 sequence: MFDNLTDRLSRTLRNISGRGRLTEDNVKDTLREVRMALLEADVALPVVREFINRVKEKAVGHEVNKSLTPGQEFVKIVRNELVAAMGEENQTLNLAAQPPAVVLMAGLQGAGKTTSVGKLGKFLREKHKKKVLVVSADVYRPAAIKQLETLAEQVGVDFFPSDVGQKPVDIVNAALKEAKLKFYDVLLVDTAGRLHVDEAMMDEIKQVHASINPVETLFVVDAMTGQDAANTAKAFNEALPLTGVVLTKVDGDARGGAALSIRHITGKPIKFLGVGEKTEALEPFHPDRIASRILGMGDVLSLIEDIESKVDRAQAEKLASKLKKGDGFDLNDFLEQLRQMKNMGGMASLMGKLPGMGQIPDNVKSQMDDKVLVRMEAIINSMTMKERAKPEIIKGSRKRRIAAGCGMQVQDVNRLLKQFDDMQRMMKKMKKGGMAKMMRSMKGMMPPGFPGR


target: T1, Ffh; test: GTPase inhibition (competition) assay; mutant FtsY varied as inhibitor of the GTPase reaction of Ffh with subsaturating wild-type FtsY; under these conditions Ki equals Kd of the Ffh-FtsY(mt) complex; fit to equation 3; both purified

binding	Binder
binds	wild-type FtsY(47-497) (domain or fragment, UniProt P10121 47-497) ASEQAVEEQPQAHTEAEAETFAADVVEVTEQVAESEKAQPEAEVVAQPEPVVEETPEPVAIEREELPLPEDVNAEAVSPEEWQAEAETVEIVEAAEEEAAKEEITDEELETALAAEAAEEAVMVVPPAEEEQPVEEIAQEQEKPTKEGFFARLKRSLLKTKENLGSGFISLFRGKKIDDDLFEELEEQLLIADVGVETTRKIITNLTEGASRKQLRDAEALYGLLKEEMGEILAKVDEPLNVEGKAPFVILMVGVNGVGKTTTIGKLARQFEQQGKSVMLAAGDTFRAAAVEQLQVWGQRNNIPVIAQHTGADSASVIFDAIQAAKARNIDVLIADTAGRLQNKSHLMEELKKIVRVMKKLDVEAPHEVMLTIDASTGQNAVSQAKLFHEAVGLTGITLTKLDGTAKGGVIFSVADQFGIPIRYIGVGERIEDLRPFKADDFIEALFARED
binds	FtsY Asn302(107) to Ala (domain or fragment, UniProt P10121 47-497) ASEQAVEEQPQAHTEAEAETFAADVVEVTEQVAESEKAQPEAEVVAQPEPVVEETPEPVAIEREELPLPEDVNAEAVSPEEWQAEAETVEIVEAAEEEAAKEEITDEELETALAAEAAEEAVMVVPPAEEEQPVEEIAQEQEKPTKEGFFARLKRSLLKTKENLGSGFISLFRGKKIDDDLFEELEEQLLIADVGVETTRKIITNLTEGASRKQLRDAEALYGLLKEEMGEILAKVDEPLNVEGKAPFVILMVGVAGVGKTTTIGKLARQFEQQGKSVMLAAGDTFRAAAVEQLQVWGQRNNIPVIAQHTGADSASVIFDAIQAAKARNIDVLIADTAGRLQNKSHLMEELKKIVRVMKKLDVEAPHEVMLTIDASTGQNAVSQAKLFHEAVGLTGITLTKLDGTAKGGVIFSVADQFGIPIRYIGVGERIEDLRPFKADDFIEALFARED
binds weakly	FtsY T307(112)A (domain or fragment, UniProt P10121 47-497) ASEQAVEEQPQAHTEAEAETFAADVVEVTEQVAESEKAQPEAEVVAQPEPVVEETPEPVAIEREELPLPEDVNAEAVSPEEWQAEAETVEIVEAAEEEAAKEEITDEELETALAAEAAEEAVMVVPPAEEEQPVEEIAQEQEKPTKEGFFARLKRSLLKTKENLGSGFISLFRGKKIDDDLFEELEEQLLIADVGVETTRKIITNLTEGASRKQLRDAEALYGLLKEEMGEILAKVDEPLNVEGKAPFVILMVGVNGVGKATTIGKLARQFEQQGKSVMLAAGDTFRAAAVEQLQVWGQRNNIPVIAQHTGADSASVIFDAIQAAKARNIDVLIADTAGRLQNKSHLMEELKKIVRVMKKLDVEAPHEVMLTIDASTGQNAVSQAKLFHEAVGLTGITLTKLDGTAKGGVIFSVADQFGIPIRYIGVGERIEDLRPFKADDFIEALFARED
binds	FtsY A336(141)W (domain or fragment, UniProt P10121 47-497) ASEQAVEEQPQAHTEAEAETFAADVVEVTEQVAESEKAQPEAEVVAQPEPVVEETPEPVAIEREELPLPEDVNAEAVSPEEWQAEAETVEIVEAAEEEAAKEEITDEELETALAAEAAEEAVMVVPPAEEEQPVEEIAQEQEKPTKEGFFARLKRSLLKTKENLGSGFISLFRGKKIDDDLFEELEEQLLIADVGVETTRKIITNLTEGASRKQLRDAEALYGLLKEEMGEILAKVDEPLNVEGKAPFVILMVGVNGVGKTTTIGKLARQFEQQGKSVMLAAGDTFRAAWVEQLQVWGQRNNIPVIAQHTGADSASVIFDAIQAAKARNIDVLIADTAGRLQNKSHLMEELKKIVRVMKKLDVEAPHEVMLTIDASTGQNAVSQAKLFHEAVGLTGITLTKLDGTAKGGVIFSVADQFGIPIRYIGVGERIEDLRPFKADDFIEALFARED
binds	FtsY Asn302(107) to Trp (domain or fragment, UniProt P10121 47-497) ASEQAVEEQPQAHTEAEAETFAADVVEVTEQVAESEKAQPEAEVVAQPEPVVEETPEPVAIEREELPLPEDVNAEAVSPEEWQAEAETVEIVEAAEEEAAKEEITDEELETALAAEAAEEAVMVVPPAEEEQPVEEIAQEQEKPTKEGFFARLKRSLLKTKENLGSGFISLFRGKKIDDDLFEELEEQLLIADVGVETTRKIITNLTEGASRKQLRDAEALYGLLKEEMGEILAKVDEPLNVEGKAPFVILMVGVWGVGKTTTIGKLARQFEQQGKSVMLAAGDTFRAAAVEQLQVWGQRNNIPVIAQHTGADSASVIFDAIQAAKARNIDVLIADTAGRLQNKSHLMEELKKIVRVMKKLDVEAPHEVMLTIDASTGQNAVSQAKLFHEAVGLTGITLTKLDGTAKGGVIFSVADQFGIPIRYIGVGERIEDLRPFKADDFIEALFARED
binds	FtsY R333(138)A (domain or fragment, UniProt P10121 47-497) ASEQAVEEQPQAHTEAEAETFAADVVEVTEQVAESEKAQPEAEVVAQPEPVVEETPEPVAIEREELPLPEDVNAEAVSPEEWQAEAETVEIVEAAEEEAAKEEITDEELETALAAEAAEEAVMVVPPAEEEQPVEEIAQEQEKPTKEGFFARLKRSLLKTKENLGSGFISLFRGKKIDDDLFEELEEQLLIADVGVETTRKIITNLTEGASRKQLRDAEALYGLLKEEMGEILAKVDEPLNVEGKAPFVILMVGVNGVGKTTTIGKLARQFEQQGKSVMLAAGDTFAAAAVEQLQVWGQRNNIPVIAQHTGADSASVIFDAIQAAKARNIDVLIADTAGRLQNKSHLMEELKKIVRVMKKLDVEAPHEVMLTIDASTGQNAVSQAKLFHEAVGLTGITLTKLDGTAKGGVIFSVADQFGIPIRYIGVGERIEDLRPFKADDFIEALFARED
